Reference: publication PMC13340245

Sequences of proteins named here, by UniProt entry; tags and fusion partners are left off. A change or cut given only in a name is not applied to a line headed by its entry.
UniProt A0R7G5: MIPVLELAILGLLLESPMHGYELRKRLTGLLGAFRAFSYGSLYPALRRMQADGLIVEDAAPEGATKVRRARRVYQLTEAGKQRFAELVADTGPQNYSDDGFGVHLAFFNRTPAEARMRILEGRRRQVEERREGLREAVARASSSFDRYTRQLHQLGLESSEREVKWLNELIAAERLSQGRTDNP
UniProt A0R006: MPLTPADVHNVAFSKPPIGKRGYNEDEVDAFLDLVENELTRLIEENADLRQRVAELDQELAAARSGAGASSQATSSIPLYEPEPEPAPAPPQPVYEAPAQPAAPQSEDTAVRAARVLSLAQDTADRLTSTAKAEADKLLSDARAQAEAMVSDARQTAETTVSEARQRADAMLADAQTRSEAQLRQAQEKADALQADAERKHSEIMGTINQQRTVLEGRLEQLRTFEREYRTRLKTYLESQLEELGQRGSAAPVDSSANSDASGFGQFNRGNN

Target: NapM (Mycobacterium smegmatis), bacterial two-hybrid fusion (Mycobacterium smegmatis) (UniProt A0R7G5)
Experiment: two-hybrid; Bacterial Adenylate Cyclase Two-Hybrid System (BACTH); transformants on LB agar with IPTG, kanamycin, ampicillin and X-gal, 2 days at 30°C

- binding: binds
Substance: DivIVA (Mycobacterium smegmatis), bacterial two-hybrid fusion (from UniProt A0R006 1-272)

Results are given in words; binding and its absence hold for the method and conditions named. Binding calls can cover weak binding; strength is not graded here.
